# These are yes or no findings as the source states them, for the method shown. For some assays here: A result given as binding can be weak or reduced; the word gives no strength. Tags and fused reporters may be left off the sequences shown. For some assays here: In cells and extracts the contact can be indirect.
# T1: BD-VQ29 (Arabidopsis) (UniProt Q9SZG3)
# T1 sequence: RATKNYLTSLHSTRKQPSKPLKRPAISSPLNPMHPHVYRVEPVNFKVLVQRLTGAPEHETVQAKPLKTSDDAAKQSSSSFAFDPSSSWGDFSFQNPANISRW
# Key:
# BD-VQ29 (Arabidopsis) = target: T1, BD-VQ29 (Arabidopsis); test: two-hybrid; directed test in yeast Y2HGold; bait in pGBKT7 (Gal4 DNA-binding domain), prey in pGADT7; growth on selective media lacking Leu/Trp/His/Ade and containing 10 mM 3-aminotriazole
# [1] = target: VQ12-cYFP / VQ12-nYFP (Arabidopsis) (UniProt O81005); test: split reporter; BiFC with nYFP and cYFP fusions co-infiltrated by Agrobacterium EHA105 in N. benthamiana leaves; confocal microscopy 48 h after infiltration
# [2] = target: VQ12 with the VQ motif mutated (LVQR to EDLE) (yeast two-hybrid) (Arabidopsis); test: two-hybrid; directed test in yeast Y2HGold; bait in pGBKT7 (Gal4 DNA-binding domain), prey in pGADT7; growth on selective media lacking Leu/Trp/His/Ade and containing 10 mM 3-aminotriazole
# [3] = target: C-terminal part of VQ12 (yeast two-hybrid) (Arabidopsis); test: as above
# [4] = target: N-terminal part of VQ12 containing the VQ motif (yeast two-hybrid) (Arabidopsis); test: as above
# [5] = target: N-terminal part of VQ29 containing the VQ motif (yeast two-hybrid) (Arabidopsis); test: as above
# [6] = target: VQ29 with the VQ motif mutated (LVQR to EDLE) (yeast two-hybrid) (Arabidopsis) (UniProt Q9SZG3); test: as above
# [7] = target: C-terminal part of VQ29 (yeast two-hybrid) (Arabidopsis); test: as above
Molecule,binding (BD-VQ29 (Arabidopsis)),also measured
AD-VQ12 (Arabidopsis),binds,–
AD-VQ32 (from UniProt Q9FIP7),binds,–
AD-VQ6 (Arabidopsis),binds,–
AD-VQ26 (from UniProt Q9M1D4),binds,–
AD-VQ3 (from UniProt Q9LMP5),binds,–
AD-VQ34 (Arabidopsis),binds,–
AD-VQ30 (Arabidopsis),binds weakly,–
"VQ29-cYFP / VQ29-nYFP (protein, UniProt Q9SZG3 1-123) MEATSQQFMSQSYLNAQETTTRATKNYLTSLHSTRKQPSKPLKRPAISSPLNPMHPHVYRVEPVNFKVLVQRLTGAPEHETVQAKPLKTSDDAAKQSSSSFAFDPSSSWGDFSFQNPANISRW",–,binding [1]: binds
"AD-VQ29 (protein, UniProt Q9SZG3 1-123) MEATSQQFMSQSYLNAQETTTRATKNYLTSLHSTRKQPSKPLKRPAISSPLNPMHPHVYRVEPVNFKVLVQRLTGAPEHETVQAKPLKTSDDAAKQSSSSFAFDPSSSWGDFSFQNPANISRW",–,binding [2]: binds; binding [3]: binds; binding [4]: no binding; binding [5]: no binding; binding [6]: binds; binding [7]: binds

# Reference: article PMC4585807
